Measurements reported in article PMC8945002.
No constants are given. Whether binding was seen depends on the method and setting.

Molecular target: T1, recombinant FtnA (FtnArec), 24-mer (P. aeruginosa PAO1) (UniProt Q9HWF9)
T1 sequence: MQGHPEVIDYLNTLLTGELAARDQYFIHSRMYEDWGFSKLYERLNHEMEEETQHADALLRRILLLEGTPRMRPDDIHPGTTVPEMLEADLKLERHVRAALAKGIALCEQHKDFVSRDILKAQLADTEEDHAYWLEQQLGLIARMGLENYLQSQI
Experiment: SPR; Biacore X100, 25 °C; Bfr or FtnArec immobilised on CM5 chips by amine coupling (100 nM in 10 mM sodium acetate pH 5.0); Bfd 0-40 μM flowed at 5 µL/min in PBS pH 7.4 with 1 mM TCEP; steady-state analysis, steric factor n set to 0.91; both purified

binding: no binding (tested: 40 μM)
B1: bacterioferritin-associated ferredoxin (Bfd) (protein, UniProt Q9HY80 1-73)
chain: MYVCLCQGVTDNQIRDAIYEGCCSYREVREATGVGTQCGKCACLAKQVVRETLNDLQSAQPVPAFGTTAFVAA
